Assay results published in PubChem BioAssay AID248 (DTP/NCI, 2004).
The list shows only some results of the screen, not a fair sample: it is rich in T/C values a quarter to a half above the control, in often repeated tests (any T/C) and in doses without a T/C. Further doses and runs are listed elsewhere. T/C: endpoint of the treated group in % of that of the vehicle group. Some entries give survivors of the animals treated and no T/C: the source files T/C as zero there, which appears to mark a toxic dose or a test without result, not a measured value. Some survivor counts are full or nearly so, which does not show that the dose was tolerated: survival well below the control is almost never listed, so the zero probably covers shortened survival too. Counts of survivors are from the toxicity check (mostly the fifth day) where no day follows; animals may have died later. Schedule codes are those of the source, taken here to give the interval after Q, in days (D) or hours (H), and the number of doses after X. Some doses were run more than once; their values stand side by side, smallest first. Some schedule codes hold Z or #, which are not explained here. For survival time, the PubChem record calls one and a half times the control and up active, and a quarter to a half above the control has no call in these data; cut-offs in other NCI protocols can differ. Some T/C values carry the count of animals alive at the toxicity check (mostly the fifth day); without a count, all were alive then.

System: L1210 leukemia ip in BDF1 mice, survival T/C
Assay: NCI In Vivo Anticancer Drug Screen. Data for tumor model L1210 Leukemia (intraperitoneal) in B6D2F1 (BDF1) mice
Conditions: T/C endpoint: mean survival time, higher T/C = longer survival

In the case of `Clc1ncnc2nc[nH]c12`, the T/C (dose: 37.5 mg/kg/injection, schedule: Q03HX008 (ip), vehicle: other) is reported as 128 % of control, the T/C (dose: 37.5 mg/kg/injection, schedule: Q03HX016 (ip), vehicle: other) is reported as 137 % of control and the T/C (dose: 50.0 mg/kg/injection, schedule: Q01DX009 (oral), vehicle: other) is reported as 145 % of control. The T/C (dose: 50.0 mg/kg/injection, schedule: Q01DX015 (ip), vehicle: other) was 128 % of control, the T/C (dose: 50.0 mg/kg/injection, schedule: Q03HX016 (ip), vehicle: other) was 136 % of control and the T/C (dose: 50.0 mg/kg/injection, schedule: Q03HX024 (ip), vehicle: other) was 147 % of control. For the same molecule, the T/C (dose: 75.0 mg/kg/injection, schedule: Q03HX008 (ip), vehicle: other) was 140 % of control, the T/C (dose: 96.0 mg/kg/injection, schedule: Q01DX015 (ip), vehicle: gum acacia) was 140 and 142 % of control and the T/C (dose: 100.0 mg/kg/injection, schedule: Q01DX009 (ip), vehicle: other) was 128 % of control. The T/C (dose: 100.0 mg/kg/injection, schedule: Q01DX009 (oral), vehicle: other) was 127 and 141 % of control, the T/C (dose: 100.0 mg/kg/injection, schedule: Q01DX009 (sc), vehicle: other) was 149 % of control and the T/C (dose: 100.0 mg/kg/injection, schedule: Q01DX015 (ip), vehicle: other) was 143 % of control. For the same molecule, the T/C (dose: 146.0 mg/kg/injection, schedule: Q01DX015 (ip), vehicle: gum acacia) was 129 % of control, the T/C (dose: 158.0 mg/kg/injection, schedule: Q01DX015 (ip), vehicle: gum acacia, evaluated on day 5) was 138 % of control and the T/C (dose: 158.0 mg/kg/injection, schedule: Q01DX015 (ip), vehicle: gum acacia, evaluated on day 45) was 138 % of control. For the same molecule, the T/C (dose: 200.0 mg/kg/injection, schedule: Q01DX005 (ip), vehicle: other) was 134 % of control [9 of 10 alive], the T/C (dose: 200.0 mg/kg/injection, schedule: Q01DX006 (iv), vehicle: other) was 136 % of control and the T/C (dose: 200.0 mg/kg/injection, schedule: Q01DX009 (ip), vehicle: other) was 130 and 142 % of control. For the same molecule, the T/C (dose: 200.0 mg/kg/injection, schedule: Q01DX009 (sc), vehicle: other) was 143 % of control, the T/C (dose: 200.0 mg/kg/injection, schedule: Q01DX015 (ip), vehicle: other) was 146 % of control and the T/C (dose: 200.0 mg/kg/injection, schedule: Q01DX Z (ip), vehicle: carboxymethylcellulose (CMC)) was 147 % of control. The T/C (dose: 218.0 mg/kg/injection, schedule: Q01DX015 (ip), vehicle: gum acacia) was 149 % of control, the T/C (dose: 241.0 mg/kg/injection, schedule: Q01DX015 (ip), vehicle: gum acacia, evaluated on day 5) was 128 % of control and the T/C (dose: 241.0 mg/kg/injection, schedule: Q01DX015 (ip), vehicle: gum acacia, evaluated on day 45) was 128 % of control. For the same molecule, the T/C (dose: 327.0 mg/kg/injection, schedule: Q01DX015 (ip), vehicle: gum acacia) was 147 % of control, the survivor count (dose: 400.0 mg/kg/injection, schedule: Q01DX001 (iv), vehicle: other) was 0 of 10 and the T/C (dose: 400.0 mg/kg/injection, schedule: Q01DX001 (oral), vehicle: other) was 129 % of control. For the same molecule, the T/C (dose: 400.0 mg/kg/injection, schedule: Q01DX005 (ip), vehicle: other) was 147 % of control [8 of 10 alive], the T/C (dose: 400.0 mg/kg/injection, schedule: Q01DX009 (ip), vehicle: other) was 127 [8 of 10 alive] and 129 % of control [9 of 10 alive] and the survivor count (dose: 400.0 mg/kg/injection, schedule: Q01DX009 (oral), vehicle: other) was 6 of 10. For the same molecule, the T/C (dose: 400.0 mg/kg/injection, schedule: Q01DX009 (sc), vehicle: other) was 126 % of control [7 of 10 alive], the survivor count (dose: 400.0 mg/kg/injection, schedule: Q01DX Z (ip), vehicle: carboxymethylcellulose (CMC)) was 0 of 6 and the survivor count (dose: 490.0 mg/kg/injection, schedule: Q01DX015 (ip), vehicle: gum acacia) was 10 of 10. The survivor count (dose: 540.0 mg/kg/injection, schedule: Q01DX015 (ip), vehicle: gum acacia) was 0 of 10 and 10 of 10, the survivor count (dose: 600.0 mg/kg/injection, schedule: Q01DX001 (sc), vehicle: other) was 6 of 10 and the survivor count (dose: 600.0 mg/kg/injection, schedule: Q04DX003 (ip), vehicle: other) was 0 of 10. The survivor count (dose: 600.0 mg/kg/injection, schedule: Q08DX002 (ip), vehicle: other) was 1 of 10, the T/C (dose: 800.0 mg/kg/injection, schedule: Q01DX001 (oral), vehicle: other) was 142 % of control [8 of 10 alive] and the survivor count (dose: 910.0 mg/kg/injection, schedule: Q01DX015 (ip), vehicle: gum acacia) was 0 of 10 and 10 of 10.
